Measured values taken from the supplement of paper PMC6078165.
The reference is the same well before dosing, and untreated signal decays as well.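 Fibroblast labels denote human fibroblasts, mainly primary ones from uterus (C12385, HUF), lung (H6013), bone (Hs27A), adrenal (HADF) and skin (WS1), plus mammary HMF and breast cancer-associated Hs343T. Cancer cells are basal-like or mesenchymal-like triple-negative breast cancer lines. A hit is a response shift exceeding 3x replicate standard deviation. The tissue of the other fibroblasts is not given here.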

Tested on: Hs578T
Experiment: relative JC-1 red fluorescence (viability) vs pre-drug, coculture with fibroblast (fraction); higher = more viable cancer cells
Experimental: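 JC-1 labelled TNBC cells cocultured 1:1 (1,500 cells each) with CellTrace Violet stained primary or stromal fibroblasts in 384-well plates in FluoroBrite medium, treated with one of 42 anticancer drugs at 0.1, 1, 10 or 100 uM. JC-1 red fluorescence (mitochondrial integrity in cancer cells only) was read by plate reader every 8 h for 72 h. Values are normalised to each well's pre-drug value. The stock of one drug was tenfold lower, so its dose labels may be too high.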

Nc1ncn([C@@H]2O[C@H](CO)[C@@H](O)[C@H]2O)c(=O)n1 [Azacitidine]
relative JC-1 red fluorescence
Conditions	8 h	16 h	24 h	32 h	40 h	48 h	56 h	64 h	72 h
0.1 µM	0.8664	0.791	0.752	0.715	0.659	0.625	0.601	0.567	0.56
1 µM	0.902	0.814	0.785	0.757	0.703	0.6574	0.63	0.582	0.557
10 µM	0.88	0.806	0.766	0.723	0.662	0.621	0.595	0.56	0.557
100 µM	0.837	0.742	0.6994	0.6856	0.638	0.606	0.595	0.562	0.553

relative JC-1 red fluorescence
Conditions	8 h	16 h	24 h	32 h	40 h	48 h	56 h	64 h	72 h
0.1 µM, coculture fibroblast: C12385	0.8061	0.7404	0.74	0.636	0.582	0.568	0.554	0.565	0.571
0.1 µM, coculture fibroblast: H6013	0.837	0.8134	0.7938	0.7843	0.77989	0.788	0.791	0.804	0.794
0.1 µM, coculture fibroblast: H6019	0.7772	0.723	0.713	0.607	0.573	0.552	0.523	0.514	0.498
0.1 µM, coculture fibroblast: H6076	0.88	0.818	0.78	0.768	0.735	0.742	0.73	0.731	0.7298
0.1 µM, coculture fibroblast: H6231	0.8524	0.792	0.745	0.701	0.642	0.619	0.584	0.579	0.582
0.1 µM, coculture fibroblast: HADF	0.88	0.837	0.795	0.761	0.748	0.741	0.737	0.759	0.747
0.1 µM, coculture fibroblast: HCFa	0.859	0.827	0.8	0.766	0.73	0.721	0.714	0.713	0.689
0.1 µM, coculture fibroblast: HCPF	0.886	0.788	0.7498	0.7282	0.685	0.668	0.6596	0.634	0.618
0.1 µM, coculture fibroblast: HHSteC	0.862	0.808	0.763	0.717	0.687	0.666	0.663	0.644	0.631
0.1 µM, coculture fibroblast: HMF	0.811	0.725	0.6798	0.667	0.621	0.607	0.589	0.58	0.585
0.1 µM, coculture fibroblast: HPFa	0.891	0.863	0.839	0.81	0.8	0.797	0.778	0.768	0.743
0.1 µM, coculture fibroblast: HUF	0.804	0.6919	0.661	0.553	0.494	0.465	0.44	0.443	0.443
0.1 µM, coculture fibroblast: Hs27A	0.892	0.877	0.848	0.82	0.778	0.784	0.761	0.769	0.741
0.1 µM, coculture fibroblast: Hs343T	0.836	0.723	0.67	0.651	0.585	0.564	0.543	0.532	0.545
0.1 µM, coculture fibroblast: WS1	0.7766	0.7016	0.701	0.609	0.557	0.55	0.53	0.545	0.552
1 µM, coculture fibroblast: C12385	0.81917	0.717	0.68	0.586	0.52	0.484	0.452	0.441	0.438
1 µM, coculture fibroblast: H6013	0.851	0.79	0.735	0.702	0.654	0.641	0.616	0.609	0.581
1 µM, coculture fibroblast: H6019	0.756	0.655	0.622	0.515	0.466	0.434	0.402	0.378	0.347
1 µM, coculture fibroblast: H6076	0.878	0.816	0.779	0.749	0.706	0.697	0.678	0.672	0.665
1 µM, coculture fibroblast: H6231	0.91	0.8099	0.734	0.675	0.60729	0.5641	0.5132	0.4787	0.4627
1 µM, coculture fibroblast: HADF	0.867	0.759	0.697	0.648	0.611	0.579	0.552	0.542	0.513
1 µM, coculture fibroblast: HCFa	0.819	0.763	0.715	0.672	0.615	0.587	0.552	0.532	0.491
1 µM, coculture fibroblast: HCPF	0.9284	0.821	0.747	0.694	0.644	0.619	0.6	0.561	0.539
1 µM, coculture fibroblast: HHSteC	0.8624	0.7643	0.712	0.669	0.621	0.595	0.568	0.54	0.503
1 µM, coculture fibroblast: HMF	0.8562	0.794	0.767	0.755	0.718	0.706	0.684	0.67	0.671
1 µM, coculture fibroblast: HPFa	0.932	0.862	0.808	0.769	0.73	0.694	0.642	0.6	0.552
1 µM, coculture fibroblast: HUF	0.869	0.733	0.731	0.627	0.571	0.539	0.505	0.5	0.502
1 µM, coculture fibroblast: Hs27A	0.8721	0.809	0.779	0.738	0.676	0.665	0.623	0.606	0.562
1 µM, coculture fibroblast: Hs343T	0.871	0.768	0.71	0.693	0.632	0.608	0.584	0.564	0.57
1 µM, coculture fibroblast: WS1	0.766	0.6797	0.6502	0.574	0.5203	0.508	0.481	0.472	0.464
10 µM, coculture fibroblast: C12385	0.786	0.7109	0.653	0.58	0.512	0.48	0.451	0.426	0.407
10 µM, coculture fibroblast: H6013	0.808	0.772	0.737	0.694	0.6546	0.6308	0.608	0.596	0.574
10 µM, coculture fibroblast: H6019	0.776	0.734	0.721	0.634	0.605	0.595	0.577	0.576	0.561
10 µM, coculture fibroblast: H6076	0.8481	0.7912	0.7662	0.755	0.711	0.711	0.694	0.689	0.688
10 µM, coculture fibroblast: H6231	0.9152	0.8441	0.803	0.752	0.693	0.657	0.606	0.578	0.551
10 µM, coculture fibroblast: HADF	0.874	0.855	0.836	0.8	0.774	0.751	0.73	0.721	0.697
10 µM, coculture fibroblast: HCFa	0.797	0.7509	0.715	0.663	0.613	0.6	0.579	0.5695	0.5395
10 µM, coculture fibroblast: HCPF	0.885	0.809	0.772	0.737	0.678	0.651	0.625	0.582	0.555
10 µM, coculture fibroblast: HHSteC	0.832	0.7828	0.7518	0.708	0.657	0.632	0.607	0.587	0.558
10 µM, coculture fibroblast: HMF	0.8657	0.797	0.7598	0.7385	0.6828	0.656	0.6259	0.5982	0.573
10 µM, coculture fibroblast: HPFa	0.866	0.822	0.77	0.709	0.671	0.642	0.614	0.598	0.567
10 µM, coculture fibroblast: HUF	0.853	0.7512	0.76	0.668	0.616	0.586	0.547	0.533	0.517
10 µM, coculture fibroblast: Hs27A	0.882	0.828	0.8	0.768	0.717	0.7	0.677	0.671	0.624
10 µM, coculture fibroblast: Hs343T	0.8952	0.79641	0.7657	0.7473	0.685	0.6609	0.633	0.599	0.581
10 µM, coculture fibroblast: WS1	0.787	0.69	0.672	0.597	0.546	0.526	0.499	0.492	0.484
100 µM, coculture fibroblast: C12385	0.799	0.673	0.635	0.57	0.5274	0.498	0.4723	0.46	0.449
100 µM, coculture fibroblast: H6013	0.777	0.722	0.702	0.697	0.664	0.658	0.635	0.633	0.614
100 µM, coculture fibroblast: H6019	0.746	0.679	0.68	0.595	0.56	0.549	0.541	0.539	0.54
100 µM, coculture fibroblast: H6076	0.8386	0.717	0.688	0.664	0.623	0.619	0.586	0.569	0.561
100 µM, coculture fibroblast: H6231	0.853	0.756	0.714	0.687	0.637	0.614	0.57	0.546	0.523
100 µM, coculture fibroblast: HADF	0.855	0.76	0.722	0.689	0.666	0.652	0.619	0.607	0.585
100 µM, coculture fibroblast: HCFa	0.794	0.763	0.744	0.711	0.668	0.657	0.623	0.614	0.592
100 µM, coculture fibroblast: HCPF	0.878	0.788	0.7557	0.7362	0.6907	0.6658	0.65	0.612	0.587
100 µM, coculture fibroblast: HHSteC	0.818	0.7722	0.735	0.705	0.65	0.613	0.588	0.575	0.548
100 µM, coculture fibroblast: HMF	0.812	0.747	0.715	0.708	0.663	0.652	0.624	0.5978	0.584
100 µM, coculture fibroblast: HPFa	0.8564	0.783	0.738	0.694	0.665	0.647	0.61	0.591	0.563
100 µM, coculture fibroblast: HUF	0.835	0.686	0.72356	0.643	0.6008	0.57587	0.544	0.535	0.527
100 µM, coculture fibroblast: Hs27A	0.867	0.829	0.794	0.78	0.745	0.751	0.72	0.709	0.652
100 µM, coculture fibroblast: Hs343T	0.8754	0.7617	0.699	0.688	0.633	0.604	0.564	0.534	0.513
100 µM, coculture fibroblast: WS1	0.788	0.7106	0.6813	0.598	0.546	0.521	0.488	0.476	0.463
